Reference: paper PMC4960548
Results are given in words; binding and its absence hold for the method and conditions named. Binding seen in cells or lysates may run through a third protein. Some results given as binding are weak or reduced against the parent protein; the word gives no strength.

By UniProt entry, the sequences of proteins in these tests, tags left out.
UniProt Q12778: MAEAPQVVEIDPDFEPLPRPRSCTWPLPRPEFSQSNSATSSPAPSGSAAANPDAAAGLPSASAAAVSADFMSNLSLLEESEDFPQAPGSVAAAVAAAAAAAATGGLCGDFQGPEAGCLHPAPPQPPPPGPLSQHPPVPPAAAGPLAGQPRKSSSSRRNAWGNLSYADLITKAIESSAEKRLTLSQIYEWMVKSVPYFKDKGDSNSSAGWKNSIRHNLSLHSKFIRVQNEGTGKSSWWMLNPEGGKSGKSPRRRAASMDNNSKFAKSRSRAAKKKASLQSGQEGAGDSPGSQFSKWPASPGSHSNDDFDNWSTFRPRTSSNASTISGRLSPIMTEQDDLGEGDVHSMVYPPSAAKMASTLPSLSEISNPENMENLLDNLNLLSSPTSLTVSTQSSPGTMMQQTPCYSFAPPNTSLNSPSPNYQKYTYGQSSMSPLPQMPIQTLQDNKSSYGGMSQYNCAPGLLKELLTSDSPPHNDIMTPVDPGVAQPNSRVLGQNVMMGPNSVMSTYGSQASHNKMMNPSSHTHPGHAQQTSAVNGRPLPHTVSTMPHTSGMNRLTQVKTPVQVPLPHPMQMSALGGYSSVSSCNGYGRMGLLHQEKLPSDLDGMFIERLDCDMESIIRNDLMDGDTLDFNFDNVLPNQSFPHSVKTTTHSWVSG
UniProt Q8N6T7: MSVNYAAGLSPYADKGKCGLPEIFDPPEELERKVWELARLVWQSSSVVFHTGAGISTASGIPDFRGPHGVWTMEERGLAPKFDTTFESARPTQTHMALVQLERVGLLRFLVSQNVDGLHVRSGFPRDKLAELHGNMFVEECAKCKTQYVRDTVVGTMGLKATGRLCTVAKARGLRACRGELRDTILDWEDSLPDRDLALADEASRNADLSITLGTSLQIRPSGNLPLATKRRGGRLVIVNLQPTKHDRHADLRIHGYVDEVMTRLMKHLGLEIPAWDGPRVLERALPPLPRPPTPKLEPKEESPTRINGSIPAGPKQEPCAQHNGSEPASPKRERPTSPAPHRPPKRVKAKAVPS

Target: forkhead box protein O1 (FoxO1) (UniProt Q12778)
Test: co-IP; HEK293 cells transfected with Flag or Sirt6; 250 ug of lysate protein precleared with protein G-agarose, incubated with anti-FoxO1 overnight at 4 °C, then protein G-agarose at 4 °C for 2 h; blot probed for Sirt6

Substance: Sirtuin 6 (Flag-Sirt6) (from UniProt Q8N6T7 1-355) (enzyme)
- binding: binds
